# Measurements published in the supplement of paper PMC4604168 (melanoma cell lines).
# The list shows a part of the results. Many values rest on one well or one pass, so single values are uncertain.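 The apoptosis fraction was the count of cleaved-PARP antibody-stained nuclei relative to all DNA-stained nuclei, imaged in 1,536-well plates. Screening doses were set so most cells survived, and baseline and induced cleaved-PARP levels vary greatly across cell lines.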
# Test system: COLO792
# Experiment: cleaved PARP positive nuclei fraction relative to DMSO control; melanoma cells; higher = more apoptosis
# Details: library dose: low library concentration; 72 h
row,Structure (SMILES),cleaved PARP positive nuclei fraction [%]
1,"CC1(C)NC(=O)N(c2ccc([N+](=O)[O-])c(C(F)(F)F)c2)C1=O [nilutamide] + COc1ccc(COc2ccc(Cc3cnc(N)nc3N)cc2OC)cc1 [GW2580] (first compound 1 µM, partner dose 1 µM)",174
2,"COCC[n+]1c2c(n(Cc3cnccn3)c1C)C(=O)c1ccccc1C2=O + CCc1ccc(CCOc2ccc(CC3SC(=O)NC3=O)cc2)nc1 [pioglitazone] (first compound 0.0004 µM, partner dose 2 µM)",241
3,"O=C(CCCCCCC(=O)Nc1ccccc1)NO [vorinostat] + COc1ccc(-c2ccc3c(N4CCOCC4)nc(N4C[C@@H](C)O[C@@H](C)C4)nc3n2)cc1CO [KU0063794] (first compound 0.08 µM, partner dose 0.02 µM)",108
4,"COc1cc(Nc2ncc(F)c(Nc3ccc4c(n3)NC(=O)C(C)(C)O4)n2)cc(OC)c1OC [Tamatinib] + O=S(=O)(c1ccccc1)N(CC(F)(F)F)c1ccc(C(O)(C(F)(F)F)C(F)(F)F)cc1 [T0901317] (first compound 0.4 µM, partner dose 1.4 µM)",111
5,"NC(=O)Nc1cc(-c2cccc(F)c2)sc1C(=O)N[C@H]1CCCNC1 + O=S(=O)(c1ccccc1)N(CC(F)(F)F)c1ccc(C(O)(C(F)(F)F)C(F)(F)F)cc1 [T0901317] (first compound 0.02 µM, partner dose 1.4 µM)",51.2
6,"Cn1nnc2c(C(N)=O)ncn2c1=O [temozolomide] + COc1ccc(-c2ccc3c(N4CCOCC4)nc(N4C[C@@H](C)O[C@@H](C)C4)nc3n2)cc1CO [KU0063794] (first compound 2 µM, partner dose 0.02 µM)",104
7,"Nc1cccc2c1CN(C1CCC(=O)NC1=O)C2=O (stereo not drawn) [lenalidomide] + c1cc(-c2cnn3cc(-c4ccc(OCCN5CCCCC5)cc4)cnc23)ccn1 [Dorsomorphin] (first compound 1 µM, partner dose 0.4 µM)",165
8,"Cn1cncc1[C@@](N)(c1ccc(Cl)cc1)c1ccc2c(c1)c(-c1cccc(Cl)c1)cc(=O)n2C [tipifarnib] + c1cc(-c2cnn3cc(-c4ccc(OCCN5CCCCC5)cc4)cnc23)ccn1 [Dorsomorphin] (first compound 0.01 µM, partner dose 0.4 µM)",210
9,"Cc1cc(N2CCOCC2)cc2[nH]c(-c3c(NC[C@@H](O)c4cccc(Cl)c4)cc[nH]c3=O)nc12 + Cn1cc(/C=C2\C(=O)Nc3cccnc32)c2ccccc21 [GW441756] (first compound 0.2 µM, partner dose 0.4 µM)",154
10,"Cn1c(Nc2ccc(C(F)(F)F)cc2)nc2cc(Oc3ccnc(-c4ncc(C(F)(F)F)[nH]4)c3)ccc21 + Oc1nc(-c2ccc(C(F)(F)F)cc2)nc2c1CSCC2 [XAV939] (first compound 0.08 µM, partner dose 2 µM)",684
11,"Cn1nnc2c(C(N)=O)ncn2c1=O [temozolomide] + CC(C)CCN1c2nc(Nc3cc(F)c(O)c(F)c3)ncc2N(C)C(=O)C1C [BID1870] (first compound 2 µM, partner dose 0.2 µM)",138
12,"C[C@]1(c2nc3c(C(N)=O)cccc3[nH]2)CCCN1 [Veliparib] + O=C(O)C(=O)Nc1sc2c(c1C(=O)O)CCNC2 [TCS401] (first compound 1.4 µM, partner dose 1.66667 µM)",52.6
13,"O=C(Nc1cccc(Cl)c1)Nc1ncc(CCNc2ncnc3ccsc23)s1 + COc1cc2ncnc(Nc3ccc(Oc4ccccc4)cc3)c2cc1OC [SrcI1] (first compound 0.0008 µM, partner dose 2 µM)",56.4
14,"NC(=O)Nc1cc(-c2cccc(F)c2)sc1C(=O)N[C@H]1CCCNC1 + O=c1cc(-c2cccc3c2Sc2ccccc2S3)oc(N2CCOCC2)c1 [KU55933] (first compound 0.02 µM, partner dose 1 µM)",64.4
15,"CC(C)(C)c1cnc(CSc2cnc(NC(=O)C3CCNCC3)s2)o1 + N#Cc1c(O)c2c(-c3ccc(-c4ccccc4O)cc3)csc2[nH]c1=O [A769662] (first compound 0.01 µM, partner dose 2 µM)",85

# Test system: COLO800
# Experiment: as above
# Details: library dose: low library concentration; 72 h
row,Structure (SMILES),cleaved PARP positive nuclei fraction [%]
1,"C=CCn1c(=O)c2cnc(Nc3ccc(N4CCN(C)CC4)cc3)nc2n1-c1cccc(C(C)(C)O)n1 + O=S(=O)(c1ccccc1)N(CC(F)(F)F)c1ccc(C(O)(C(F)(F)F)C(F)(F)F)cc1 [T0901317] (first compound 0.02 µM, partner dose 1.4 µM)",90.3
2,"O=C(Nc1cccc(Cl)c1)Nc1ncc(CCNc2ncnc3ccsc23)s1 + COc1cc(N2CCC(N3CCN(C)CC3)CC2)ccc1Nc1ncc(Cl)c(Nc2ccccc2S(=O)(=O)C(C)C)n1 [NVP-TAE684] (first compound 0.0008 µM, partner dose 0.08 µM)",100
3,"C[C@]1(c2nc3c(C(N)=O)cccc3[nH]2)CCCN1 [Veliparib] + COc1cc2ncnc(Nc3ccc(Oc4ccccc4)cc3)c2cc1OC [SrcI1] (first compound 1.4 µM, partner dose 2 µM)",71.5
4,"Cn1c(Nc2ccc(C(F)(F)F)cc2)nc2cc(Oc3ccnc(-c4ncc(C(F)(F)F)[nH]4)c3)ccc21 + COc1ccc(COc2ccc(Cc3cnc(N)nc3N)cc2OC)cc1 [GW2580] (first compound 0.08 µM, partner dose 1 µM)",127
5,"COCC[n+]1c2c(n(Cc3cnccn3)c1C)C(=O)c1ccccc1C2=O + COc1ccc(COc2ccc(Cc3cnc(N)nc3N)cc2OC)cc1 [GW2580] (first compound 0.0004 µM, partner dose 1 µM)",70.2
6,"Cc1ccc(NC(=O)c2cccc(N(C)C)c2)cc1NC(=O)c1ccc(O)cc1 + COC(=O)c1sccc1S(=O)(=O)Nc1ccc(Nc2ccccc2)cc1OC [GSK0660] (first compound 2 µM, partner dose 1 µM)",109
7,"COCC[n+]1c2c(n(Cc3cnccn3)c1C)C(=O)c1ccccc1C2=O + CC(C)CCN1c2nc(Nc3cc(F)c(O)c(F)c3)ncc2N(C)C(=O)C1C [BID1870] (first compound 0.0004 µM, partner dose 0.2 µM)",415
8,"CC(C)(C)c1cnc(CSc2cnc(NC(=O)C3CCNCC3)s2)o1 + Cc1cc([N+](=O)[O-])ccc1NS(=O)(=O)c1cc(Cl)ccc1Cl [FH535] (first compound 0.01 µM, partner dose 1 µM)",101
9,"Cc1ccc(NC(=O)c2cccc(N(C)C)c2)cc1NC(=O)c1ccc(O)cc1 + CCCCCCCCCCCC1=C(O)C(=O)C=C(O)C1=O [Embelin] (first compound 2 µM, partner dose 1.2 µM)",26.9
10,"Cc1ccc(NC(=O)c2cccc(N(C)C)c2)cc1NC(=O)c1ccc(O)cc1 + COc1cc(N2CCC(N3CCN(C)CC3)CC2)ccc1Nc1ncc(Cl)c(Nc2ccccc2S(=O)(=O)C(C)C)n1 [NVP-TAE684] (first compound 2 µM, partner dose 0.08 µM)",113
11,"Cn1cncc1[C@@](N)(c1ccc(Cl)cc1)c1ccc2c(c1)c(-c1cccc(Cl)c1)cc(=O)n2C [tipifarnib] + CCc1ccc(CCOc2ccc(CC3SC(=O)NC3=O)cc2)nc1 [pioglitazone] (first compound 0.01 µM, partner dose 2 µM)",45.5
12,"O=C(CCCCCCC(=O)Nc1ccccc1)NO [vorinostat] + COc1cc(N2CCC(N3CCN(C)CC3)CC2)ccc1Nc1ncc(Cl)c(Nc2ccccc2S(=O)(=O)C(C)C)n1 [NVP-TAE684] (first compound 0.08 µM, partner dose 0.08 µM)",97.7
13,"O=C(Nc1cccc(Cl)c1)Nc1ncc(CCNc2ncnc3ccsc23)s1 + COC(=O)c1sccc1S(=O)(=O)Nc1ccc(Nc2ccccc2)cc1OC [GSK0660] (first compound 0.0008 µM, partner dose 1 µM)",52.3
14,"C=CCn1c(=O)c2cnc(Nc3ccc(N4CCN(C)CC4)cc3)nc2n1-c1cccc(C(C)(C)O)n1 + CC(C)CCN1c2nc(Nc3cc(F)c(O)c(F)c3)ncc2N(C)C(=O)C1C [BID1870] (first compound 0.02 µM, partner dose 0.2 µM)",197
15,"CO[C@@H]1[C@H](N(C)C(=O)c2ccccc2)C[C@H]2O[C@]1(C)n1c3ccccc3c3c4c(c5c6ccccc6n2c5c31)C(=O)NC4 [Midostaurin] + O=S(=O)(c1ccccc1)N(CC(F)(F)F)c1ccc(C(O)(C(F)(F)F)C(F)(F)F)cc1 [T0901317] (first compound 0.08 µM, partner dose 1.4 µM)",80.8
16,"Nc1cccc2c1CN(C1CCC(=O)NC1=O)C2=O (stereo not drawn) [lenalidomide] + COC(=O)c1sccc1S(=O)(=O)Nc1ccc(Nc2ccccc2)cc1OC [GSK0660] (first compound 1 µM, partner dose 1 µM)",168
17,"O=C(Nc1cccc(Cl)c1)Nc1ncc(CCNc2ncnc3ccsc23)s1 + CCc1ccc(CCOc2ccc(CC3SC(=O)NC3=O)cc2)nc1 [pioglitazone] (first compound 0.0008 µM, partner dose 2 µM)",55.3
18,"COCC[n+]1c2c(n(Cc3cnccn3)c1C)C(=O)c1ccccc1C2=O + O=c1cc(-c2cccc3c2Sc2ccccc2S3)oc(N2CCOCC2)c1 [KU55933] (first compound 0.0004 µM, partner dose 1 µM)",248

# A second format for part of the listing above:
row | Structure (SMILES) | cleaved PARP positive nuclei fraction [%]
1 | C=CCn1c(=O)c2cnc(Nc3ccc(N4CCN(C)CC4)cc3)nc2n1-c1cccc(C(C)(C)O)n1 + O=S(=O)(c1ccccc1)N(CC(F)(F)F)c1ccc(C(O)(C(F)(F)F)C(F)(F)F)cc1 [T0901317] (first compound 0.02 µM, partner dose 1.4 µM) | 90.3
2 | O=C(Nc1cccc(Cl)c1)Nc1ncc(CCNc2ncnc3ccsc23)s1 + COc1cc(N2CCC(N3CCN(C)CC3)CC2)ccc1Nc1ncc(Cl)c(Nc2ccccc2S(=O)(=O)C(C)C)n1 [NVP-TAE684] (first compound 0.0008 µM, partner dose 0.08 µM) | 100
3 | C[C@]1(c2nc3c(C(N)=O)cccc3[nH]2)CCCN1 [Veliparib] + COc1cc2ncnc(Nc3ccc(Oc4ccccc4)cc3)c2cc1OC [SrcI1] (first compound 1.4 µM, partner dose 2 µM) | 71.5
9 | Cc1ccc(NC(=O)c2cccc(N(C)C)c2)cc1NC(=O)c1ccc(O)cc1 + CCCCCCCCCCCC1=C(O)C(=O)C=C(O)C1=O [Embelin] (first compound 2 µM, partner dose 1.2 µM) | 26.9
11 | Cn1cncc1[C@@](N)(c1ccc(Cl)cc1)c1ccc2c(c1)c(-c1cccc(Cl)c1)cc(=O)n2C [tipifarnib] + CCc1ccc(CCOc2ccc(CC3SC(=O)NC3=O)cc2)nc1 [pioglitazone] (first compound 0.01 µM, partner dose 2 µM) | 45.5
14 | C=CCn1c(=O)c2cnc(Nc3ccc(N4CCN(C)CC4)cc3)nc2n1-c1cccc(C(C)(C)O)n1 + CC(C)CCN1c2nc(Nc3cc(F)c(O)c(F)c3)ncc2N(C)C(=O)C1C [BID1870] (first compound 0.02 µM, partner dose 0.2 µM) | 197
17 | O=C(Nc1cccc(Cl)c1)Nc1ncc(CCNc2ncnc3ccsc23)s1 + CCc1ccc(CCOc2ccc(CC3SC(=O)NC3=O)cc2)nc1 [pioglitazone] (first compound 0.0008 µM, partner dose 2 µM) | 55.3
